Experimental data: article PMC9824695, “A Novel Multi-Target Mu/Delta Opioid Receptor Agonist, HAGD, Produced Potent Peripheral Antinociception with Limited Side Effects in Mice and Minimal Impact on Human Sperm Motility In Vitro” (Molecules, 2023)
“Also recorded” adds a separate entry of the source.

Legend:
human sperm = test: Human sperm motility in vitro; conditions: for sperm progressive motility (PR) / sperm motility (in words): 3.5 h; for sperm progressive motility (PR): 37 °C, control 57.29 ± 2.22, mean ± S.E.M., n = 5, p < 0.05
male Kunming mice [1] = test: Carrageenan-induced inflammatory pain; type: in vivo, mouse (Kunming); conditions: 10 mg/kg s.c. each; AUC 0 to 90 min
Method: Carrageenan has been used in the inflammatory pain model. The mice were placed in a clear plastic chamber on the glass surface of radiant heat equipment (PL-200, Chengdu Technology & Market Co., Ltd., Chengdu, China). Radiant heat intensity was adapted to engender a basal latency within 10–20 s in naive mice. The cutoff time was set at 25 s to avoid tissue damage. On the first day, the paw withdrawal threshold was tested, and the right hind paw intraplantar injection with 20 μL of 2% λ-carrageenan was performed. After 24 h, thermal hyperalgesia was measured. Subsequently, the paw withdrawal threshold was measured three times at approximately 2-min intervals at every point after administration. Percent reversal of hyperalgesia for each animal after treatment was defined as: MPE (%) = 100 × [(postdose threshold − predose threshold)/(baseline threshold − predose threshold)].

male Kunming mice [2] = test: Rotarod test; type: in vivo, mouse (Kunming); conditions: 10 mg/kg s.c.; compared with saline
Method: Motor coordination and equilibrium were determined using a rotarod apparatus (ZB-200, Chengdu Technology & Market Co., Ltd., Chengdu, China). The mice were trained on a rotating rod at 16 rpm thrice daily for 2 days. Animals that remained on the rod for at least 180 s were used. The cutoff time was 300 s. On the third day, the mice received subcutaneous administration of drugs. The latency to fall off the rod was recorded 15, 30, 45, 60, and 90 min after administration. If the motor coordination of mice is impaired after administration of analgesics, the latency is reduced.

## CN1CC[C@]23c4c5ccc(O)c4O[C@H]2[C@@H](O)C=C[C@H]3[C@H]1C5 [morphine]
Human sperm; 0.01 µM
  sperm progressive motility (PR): 45.75 ± 2.89
Human sperm; 0.1 µM
  sperm progressive motility (PR): 46.16 ± 1.15
Human sperm; 0.0001, 0.001, 1, or 10 µM, 0.5, 1, 3.5, or 4 h
  sperm progressive motility (PR), morphine (in words): did not change the PR of sperm
Human sperm; morphine 0.01 µM (1 × 10^−8 mol/L)
  sperm motility (in words): significantly reduced; also recorded: significant inhibition after 3.5 h
Human sperm; morphine 0.1 µM (1 × 10^−7 mol/L)
  sperm motility (in words): significantly reduced human sperm motility after 3.5 h
Male Kunming mice [1]
  antinociception, AUC of MPE% compared between HAGD and morphine: equipotent antinociception
Male Kunming mice [2]
  endurance time on rotating rod (in words): no significant difference in the endurance time
